Earlier results in US20200113979A1, “Protein Kinase C-delta targeted therapy for treating radiation injury” (Temple University-Of The Commonwealth System of Higher …, priority 2017, published 2020).
For at least one compound, name, drawing or mass did not settle the structure.

Test system: leukocyte adhesion in irradiated tissue
Settings: irradiated tissue in vivo

**Q.** For `C[C@@H]1C[C@H]2[C@@H]3CCC4=CC(=O)C=C[C@]4(C)[C@@]3(F)[C@@H](O)C[C@]2(C)[C@@]1(O)C(=O)CO` [Dexamethasone], which “radiation-induced increase in leukocyte adhesion” value is on record?
**A.** could be modulated
